# From the supplement of paper PMC12067093, “Discovery and optimisation of a covalent ligand for TRIM25 and its application to targeted protein ubiquitination” (Chemical Science, 2025)
# Protein sequences, listed by entry. Tags and fused reporters are not part of them. Lines headed by an entry give the natural chain unless they say otherwise; changes in a name come on top.
# UniProt Q9Y3Z3: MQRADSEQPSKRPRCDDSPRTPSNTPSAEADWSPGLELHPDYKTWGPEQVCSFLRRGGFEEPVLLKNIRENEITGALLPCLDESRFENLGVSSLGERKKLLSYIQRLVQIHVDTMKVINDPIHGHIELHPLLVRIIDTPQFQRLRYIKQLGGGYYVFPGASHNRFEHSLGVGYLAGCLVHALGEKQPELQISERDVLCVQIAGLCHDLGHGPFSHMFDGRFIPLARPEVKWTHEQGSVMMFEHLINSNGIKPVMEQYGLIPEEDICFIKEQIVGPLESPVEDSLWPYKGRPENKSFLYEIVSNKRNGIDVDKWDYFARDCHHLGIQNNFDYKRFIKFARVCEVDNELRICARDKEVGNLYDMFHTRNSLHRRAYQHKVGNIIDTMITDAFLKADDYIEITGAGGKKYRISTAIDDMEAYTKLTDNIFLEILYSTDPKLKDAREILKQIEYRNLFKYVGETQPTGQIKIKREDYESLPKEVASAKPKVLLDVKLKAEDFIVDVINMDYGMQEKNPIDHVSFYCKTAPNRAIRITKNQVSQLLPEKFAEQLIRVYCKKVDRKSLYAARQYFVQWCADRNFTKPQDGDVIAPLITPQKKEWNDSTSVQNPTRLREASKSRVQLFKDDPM
# UniProt Q8IZ73: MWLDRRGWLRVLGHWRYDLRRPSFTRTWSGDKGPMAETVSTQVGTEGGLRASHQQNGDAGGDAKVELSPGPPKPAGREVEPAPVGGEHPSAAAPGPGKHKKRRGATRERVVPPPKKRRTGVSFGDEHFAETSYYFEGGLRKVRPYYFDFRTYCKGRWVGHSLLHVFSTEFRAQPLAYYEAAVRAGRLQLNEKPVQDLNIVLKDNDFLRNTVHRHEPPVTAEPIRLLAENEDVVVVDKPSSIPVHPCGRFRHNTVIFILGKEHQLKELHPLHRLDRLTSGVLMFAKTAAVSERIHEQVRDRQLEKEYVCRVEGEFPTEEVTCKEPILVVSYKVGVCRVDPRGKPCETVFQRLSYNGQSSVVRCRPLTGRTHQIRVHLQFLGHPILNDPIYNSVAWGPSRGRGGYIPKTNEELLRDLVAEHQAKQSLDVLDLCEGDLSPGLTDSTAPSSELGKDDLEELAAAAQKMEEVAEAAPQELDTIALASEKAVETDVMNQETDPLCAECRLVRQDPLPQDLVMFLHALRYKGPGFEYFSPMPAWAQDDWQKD
# UniProt P23921: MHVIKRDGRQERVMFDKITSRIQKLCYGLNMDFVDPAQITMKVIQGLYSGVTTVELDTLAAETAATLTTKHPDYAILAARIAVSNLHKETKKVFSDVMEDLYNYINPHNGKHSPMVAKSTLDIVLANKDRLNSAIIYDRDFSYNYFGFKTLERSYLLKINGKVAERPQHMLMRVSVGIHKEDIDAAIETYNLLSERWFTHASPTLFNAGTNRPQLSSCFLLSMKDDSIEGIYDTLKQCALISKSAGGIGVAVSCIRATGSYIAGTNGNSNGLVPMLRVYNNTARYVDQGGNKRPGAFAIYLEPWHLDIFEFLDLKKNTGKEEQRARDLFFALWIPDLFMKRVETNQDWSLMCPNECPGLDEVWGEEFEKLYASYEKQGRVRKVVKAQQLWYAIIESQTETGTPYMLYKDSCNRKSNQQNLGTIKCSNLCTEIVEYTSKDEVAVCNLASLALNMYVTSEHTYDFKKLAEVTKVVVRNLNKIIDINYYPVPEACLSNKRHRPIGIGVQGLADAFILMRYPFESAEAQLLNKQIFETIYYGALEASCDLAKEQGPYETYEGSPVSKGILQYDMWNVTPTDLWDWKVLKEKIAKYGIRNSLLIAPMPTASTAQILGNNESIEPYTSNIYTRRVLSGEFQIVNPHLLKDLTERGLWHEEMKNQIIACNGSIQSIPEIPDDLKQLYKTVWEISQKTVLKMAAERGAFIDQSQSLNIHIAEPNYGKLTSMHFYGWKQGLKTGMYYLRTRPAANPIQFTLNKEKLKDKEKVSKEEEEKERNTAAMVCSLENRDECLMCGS
# UniProt P56182: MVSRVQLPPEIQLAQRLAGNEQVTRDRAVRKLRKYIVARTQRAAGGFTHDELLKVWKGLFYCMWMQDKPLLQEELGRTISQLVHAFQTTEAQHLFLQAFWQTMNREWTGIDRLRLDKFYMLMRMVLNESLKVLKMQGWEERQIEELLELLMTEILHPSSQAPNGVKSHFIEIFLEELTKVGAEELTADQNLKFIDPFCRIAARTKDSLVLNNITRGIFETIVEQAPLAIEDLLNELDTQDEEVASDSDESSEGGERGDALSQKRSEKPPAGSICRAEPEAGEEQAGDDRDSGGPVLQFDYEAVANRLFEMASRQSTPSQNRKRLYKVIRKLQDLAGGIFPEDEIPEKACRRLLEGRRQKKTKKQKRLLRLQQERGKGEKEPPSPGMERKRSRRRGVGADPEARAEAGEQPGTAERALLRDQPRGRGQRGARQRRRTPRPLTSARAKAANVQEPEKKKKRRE
# UniProt Q6PCB5: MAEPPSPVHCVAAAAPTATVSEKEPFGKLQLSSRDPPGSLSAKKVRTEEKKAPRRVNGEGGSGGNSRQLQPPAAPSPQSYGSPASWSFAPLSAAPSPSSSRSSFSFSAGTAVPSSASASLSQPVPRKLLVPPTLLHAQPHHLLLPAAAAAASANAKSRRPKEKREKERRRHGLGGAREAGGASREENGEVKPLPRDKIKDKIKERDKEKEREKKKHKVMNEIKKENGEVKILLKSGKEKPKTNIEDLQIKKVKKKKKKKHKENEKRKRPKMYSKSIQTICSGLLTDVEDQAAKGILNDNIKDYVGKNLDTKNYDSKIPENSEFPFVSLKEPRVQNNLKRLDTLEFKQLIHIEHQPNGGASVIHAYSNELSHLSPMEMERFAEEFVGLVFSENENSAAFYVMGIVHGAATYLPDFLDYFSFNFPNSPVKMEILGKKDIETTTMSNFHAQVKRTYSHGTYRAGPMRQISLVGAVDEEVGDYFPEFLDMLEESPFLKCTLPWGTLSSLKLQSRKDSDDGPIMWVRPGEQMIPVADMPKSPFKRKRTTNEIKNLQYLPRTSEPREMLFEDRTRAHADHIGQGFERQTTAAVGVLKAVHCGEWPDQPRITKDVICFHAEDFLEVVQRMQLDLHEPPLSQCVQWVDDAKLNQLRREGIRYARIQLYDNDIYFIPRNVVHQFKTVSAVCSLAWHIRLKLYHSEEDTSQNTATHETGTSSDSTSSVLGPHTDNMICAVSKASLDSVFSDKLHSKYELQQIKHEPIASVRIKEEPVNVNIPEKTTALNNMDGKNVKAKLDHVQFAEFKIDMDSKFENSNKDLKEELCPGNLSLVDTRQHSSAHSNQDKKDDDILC
# UniProt Q96T51: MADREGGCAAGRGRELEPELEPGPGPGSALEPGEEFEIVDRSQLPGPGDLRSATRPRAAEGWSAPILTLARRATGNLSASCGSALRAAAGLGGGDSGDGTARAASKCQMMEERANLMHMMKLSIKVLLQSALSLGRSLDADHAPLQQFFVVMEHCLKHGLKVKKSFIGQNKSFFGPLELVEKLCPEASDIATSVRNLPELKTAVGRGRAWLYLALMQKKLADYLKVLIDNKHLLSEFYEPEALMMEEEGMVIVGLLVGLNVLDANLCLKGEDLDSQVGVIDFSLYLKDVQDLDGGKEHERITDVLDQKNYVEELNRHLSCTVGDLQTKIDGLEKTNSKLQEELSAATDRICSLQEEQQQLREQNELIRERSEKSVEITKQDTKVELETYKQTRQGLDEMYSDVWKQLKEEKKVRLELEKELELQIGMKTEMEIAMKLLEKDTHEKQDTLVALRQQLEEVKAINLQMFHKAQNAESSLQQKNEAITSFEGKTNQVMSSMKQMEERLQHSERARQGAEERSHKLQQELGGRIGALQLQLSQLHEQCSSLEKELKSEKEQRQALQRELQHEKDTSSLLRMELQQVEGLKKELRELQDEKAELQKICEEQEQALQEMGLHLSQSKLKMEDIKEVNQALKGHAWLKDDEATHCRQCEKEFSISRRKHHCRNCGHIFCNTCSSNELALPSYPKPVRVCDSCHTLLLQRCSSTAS
# UniProt Q9BY42: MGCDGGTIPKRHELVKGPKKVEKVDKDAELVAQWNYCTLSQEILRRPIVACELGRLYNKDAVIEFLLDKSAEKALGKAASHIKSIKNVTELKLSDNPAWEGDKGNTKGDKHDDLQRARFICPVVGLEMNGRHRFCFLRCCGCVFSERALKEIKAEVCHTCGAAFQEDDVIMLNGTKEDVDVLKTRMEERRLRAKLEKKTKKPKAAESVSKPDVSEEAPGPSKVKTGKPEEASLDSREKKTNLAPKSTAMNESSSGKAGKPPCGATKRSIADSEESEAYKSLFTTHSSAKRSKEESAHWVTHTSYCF
# UniProt Q15050: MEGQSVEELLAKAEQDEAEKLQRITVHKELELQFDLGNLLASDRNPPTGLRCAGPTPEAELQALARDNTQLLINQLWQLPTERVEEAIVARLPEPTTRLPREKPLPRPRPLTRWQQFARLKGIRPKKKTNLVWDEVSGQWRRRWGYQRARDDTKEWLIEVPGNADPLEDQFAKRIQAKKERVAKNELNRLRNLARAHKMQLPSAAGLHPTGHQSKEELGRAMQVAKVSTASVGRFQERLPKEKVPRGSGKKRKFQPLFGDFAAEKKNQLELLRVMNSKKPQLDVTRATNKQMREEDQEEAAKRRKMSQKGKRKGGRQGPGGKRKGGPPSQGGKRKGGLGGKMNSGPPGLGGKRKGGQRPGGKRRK
# UniProt Q96DX4: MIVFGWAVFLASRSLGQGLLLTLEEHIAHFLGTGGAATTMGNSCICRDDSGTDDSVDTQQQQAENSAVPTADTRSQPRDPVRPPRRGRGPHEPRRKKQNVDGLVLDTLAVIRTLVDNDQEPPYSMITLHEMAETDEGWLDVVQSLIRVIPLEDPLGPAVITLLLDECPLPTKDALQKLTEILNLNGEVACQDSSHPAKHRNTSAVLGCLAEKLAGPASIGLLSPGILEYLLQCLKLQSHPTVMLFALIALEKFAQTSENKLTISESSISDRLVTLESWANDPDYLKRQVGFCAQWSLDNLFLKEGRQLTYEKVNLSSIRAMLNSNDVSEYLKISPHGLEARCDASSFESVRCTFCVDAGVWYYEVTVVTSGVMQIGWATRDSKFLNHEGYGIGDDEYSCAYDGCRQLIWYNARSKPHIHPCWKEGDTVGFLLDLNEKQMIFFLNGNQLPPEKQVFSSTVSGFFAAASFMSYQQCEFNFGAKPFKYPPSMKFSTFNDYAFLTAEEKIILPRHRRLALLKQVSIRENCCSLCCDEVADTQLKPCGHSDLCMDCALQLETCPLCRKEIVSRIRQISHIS
# UniProt Q9H714: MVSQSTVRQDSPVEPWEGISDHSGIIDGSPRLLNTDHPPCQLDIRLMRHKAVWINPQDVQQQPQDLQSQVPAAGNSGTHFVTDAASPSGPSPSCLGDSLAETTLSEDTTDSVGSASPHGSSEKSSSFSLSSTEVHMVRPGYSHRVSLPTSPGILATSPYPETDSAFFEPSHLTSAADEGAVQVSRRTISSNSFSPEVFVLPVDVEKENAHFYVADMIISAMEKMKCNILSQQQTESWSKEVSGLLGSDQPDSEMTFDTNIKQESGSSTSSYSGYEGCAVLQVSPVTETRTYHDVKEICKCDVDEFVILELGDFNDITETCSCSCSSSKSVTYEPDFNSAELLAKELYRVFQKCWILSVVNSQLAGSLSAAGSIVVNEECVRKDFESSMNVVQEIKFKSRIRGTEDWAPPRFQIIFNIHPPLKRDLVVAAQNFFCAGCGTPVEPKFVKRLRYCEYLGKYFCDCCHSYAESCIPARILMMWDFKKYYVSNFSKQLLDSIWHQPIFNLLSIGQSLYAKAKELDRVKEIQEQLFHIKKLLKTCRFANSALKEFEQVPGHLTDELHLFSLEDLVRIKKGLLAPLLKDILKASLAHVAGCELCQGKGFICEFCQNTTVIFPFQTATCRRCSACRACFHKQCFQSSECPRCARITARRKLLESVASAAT
# UniProt Q9NYV6: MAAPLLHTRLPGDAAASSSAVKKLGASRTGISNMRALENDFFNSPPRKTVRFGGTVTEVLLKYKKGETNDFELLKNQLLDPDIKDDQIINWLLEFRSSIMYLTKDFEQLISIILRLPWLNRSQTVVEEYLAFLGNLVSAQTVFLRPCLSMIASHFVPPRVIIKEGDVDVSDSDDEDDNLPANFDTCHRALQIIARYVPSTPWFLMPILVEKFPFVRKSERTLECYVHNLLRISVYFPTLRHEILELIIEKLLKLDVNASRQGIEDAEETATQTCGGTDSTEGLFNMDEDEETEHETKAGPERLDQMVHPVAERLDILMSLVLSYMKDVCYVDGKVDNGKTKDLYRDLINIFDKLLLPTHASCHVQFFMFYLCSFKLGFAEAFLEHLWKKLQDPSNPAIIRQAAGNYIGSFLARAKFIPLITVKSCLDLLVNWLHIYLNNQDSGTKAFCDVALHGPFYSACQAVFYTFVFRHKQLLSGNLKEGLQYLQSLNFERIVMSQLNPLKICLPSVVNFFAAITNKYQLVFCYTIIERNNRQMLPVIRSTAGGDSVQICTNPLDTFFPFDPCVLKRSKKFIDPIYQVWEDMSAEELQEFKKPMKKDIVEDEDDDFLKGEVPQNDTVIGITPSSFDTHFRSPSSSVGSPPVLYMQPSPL
# Some of the results follow.
# Compound: Cc1cc(ccc1-c1ccccc1)C(=O)N1CCCN(CC1)C(=O)CCl [compound 10]
# Assay: probe-labelled cysteine peptide fold change vs DMSO (competition) (log2 fold change); higher = less target engagement (more negative = stronger competition)
# Details: 10 µM; THP-1; incubation time: 4 h
# 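Further: competitive profiling in live THP-1 cells: cysteine peptides tagged with an iodoacetamide desthiobiotin (IA-DTB) probe, intensity after compound treatment relative to DMSO-treated cells.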
row,Target,probe-labelled cysteine peptide fold change
1,RXRB_P28702_30_EMHCGVASR (UniProt P28702),-0.226
2,RPS3A_P61247_139_LFCVGFTK (UniProt P61247),-0.263
3,RPS11_P62280_60_KCPFTGNVSIR (UniProt P62280),-0.13
4,RRP8_O43159_332_NPVHCFDLASLDPR (UniProt O43159),0.114
5,RPS12_P25398_106_VVGCSCVVVK (UniProt P25398),0.0112
6,RTCA_O00442_28_VSTALSCLLGLPLR (UniProt O00442),0.165
7,RPS27A_P62979_126_RECPSDECGAGVFMASHFDR (UniProt P62979),-0.0576
8,RRP12_Q5JTH9_102_SSGTFLSGLSDCTNVTFSK (UniProt Q5JTH9),0.0575
9,RRBP1_Q9P2E9_933_CEELSGLHGQLQEAR (UniProt Q9P2E9),0.567
10,RPS21_P63220_56_TYAICGAIR (UniProt P63220),0.0519
11,SAMHD1_Q9Y3Z3_320_DCHHLGIQNNFDYKR (UniProt Q9Y3Z3),-0.0909
12,RPS20_P60866_70_TPCGEGSK (UniProt P60866),-0.14
13,RRP8_O43159_320_QRPASLVVADFGCGDCR (UniProt O43159),0.0909
14,S100A6_P06703_3_ACPLDQAIGLLVAIFHK (UniProt P06703),0.0243
15,RPUSD2_Q8IZ73_499+502_AVETDVMNQETDPLCAECR (UniProt Q8IZ73),-0.0538
16,RPS14_P62263_31_EKKEEQVISLGPQVAEGENVFGVCHIFASFNDTFVHVTDLSGK (UniProt P62263),0.0678
17,RRM1_P23921_779_NTAAMVCSLENR (UniProt P23921),0.115
18,RXRB_P28702_247_DCTVDKR (UniProt P28702),0.0509

row,Target,probe-labelled cysteine peptide fold change
1,RRP1_P56182_198_FIDPFCR (UniProt P56182),-0.055
2,RPS6_P62753_83_GHSCYR (UniProt P62753),-0.121
3,RPS14_P62263_31_KEEQVISLGPQVAEGENVFGVCHIFASFNDTFVHVTDLSGK (UniProt P62263),0.227
4,RSBN1L_Q6PCB5_610_DVICFHAEDFLEVVQR (UniProt Q6PCB5),0.0768
5,RRM2B_Q7LG56_232+236_DEGLHCDFACLMFQYLVNKPSEER (UniProt Q7LG56),0.0726
6,RUFY1_Q96T51_603_ICEEQEQALQEMGLHLSQSK (UniProt Q96T51),0.16
7,RPS12_P25398_50+56_RQAHLCVLASNCDEPMYVK (UniProt P25398),0.0285
8,SAMD9_Q5K651_721_LEAMIQNCADSSKPTSTK (UniProt Q5K651),-0.222
9,RTFDC1_Q9BY42_262_AGKPPCGATK (UniProt Q9BY42),-0.0272
10,RRS1_Q15050_52_CAGPTPEAELQALAR (UniProt Q15050),-0.106
11,RPS5_P46782_66_KAQCPIVER (UniProt P46782),-0.174
12,RPS8_P62241_72_LDVGNFSWGSECCTRK (UniProt P62241),-0.0776
13,RPTOR_Q8N122_1168_VQDIPTGADSCVTSLSCDSHR (UniProt Q8N122),-0.0217
14,RSBN1_Q5VWQ0_318_DEQLCR (UniProt Q5VWQ0),-0.206
15,RSPRY1_Q96DX4_208_NTSAVLGCLAEK (UniProt Q96DX4),-0.24
16,RUBCNL_Q9H714_641_QCFQSSECPR (UniProt Q9H714),0.416
17,RPS28_P62857_27_TGSQGQCTQVR (UniProt P62857),0.0534
18,RRN3_Q9NYV6_329_DVCYVDGK (UniProt Q9NYV6),-0.0684

# Same assay, conditions: 50 µM; THP-1; incubation time: 4 h
row,Target,probe-labelled cysteine peptide fold change
1,RXRB_P28702_30_EMHCGVASR (UniProt P28702),-0.437
2,RPS3A_P61247_139_LFCVGFTK (UniProt P61247),0.25
3,RPS11_P62280_60_KCPFTGNVSIR (UniProt P62280),-0.17
4,RRP8_O43159_332_NPVHCFDLASLDPR (UniProt O43159),0.128
5,RPS12_P25398_106_VVGCSCVVVK (UniProt P25398),0.108
6,RTCA_O00442_28_VSTALSCLLGLPLR (UniProt O00442),0.159
7,RPS27A_P62979_126_RECPSDECGAGVFMASHFDR (UniProt P62979),-0.00701
8,RRP12_Q5JTH9_102_SSGTFLSGLSDCTNVTFSK (UniProt Q5JTH9),-0.282
9,RRBP1_Q9P2E9_933_CEELSGLHGQLQEAR (UniProt Q9P2E9),0.539
10,RPS21_P63220_56_TYAICGAIR (UniProt P63220),-0.0533
11,SAMHD1_Q9Y3Z3_320_DCHHLGIQNNFDYKR (UniProt Q9Y3Z3),-0.179
12,RPS20_P60866_70_TPCGEGSK (UniProt P60866),-0.0376
13,RRP8_O43159_320_QRPASLVVADFGCGDCR (UniProt O43159),-0.124
14,S100A6_P06703_3_ACPLDQAIGLLVAIFHK (UniProt P06703),0.162
15,RPUSD2_Q8IZ73_499+502_AVETDVMNQETDPLCAECR (UniProt Q8IZ73),0.0709
16,RPS14_P62263_31_EKKEEQVISLGPQVAEGENVFGVCHIFASFNDTFVHVTDLSGK (UniProt P62263),-0.17
17,RRM1_P23921_779_NTAAMVCSLENR (UniProt P23921),0.279
18,RXRB_P28702_247_DCTVDKR (UniProt P28702),-0.254

row,Target,probe-labelled cysteine peptide fold change
1,RRP1_P56182_198_FIDPFCR (UniProt P56182),0.166
2,RPS6_P62753_83_GHSCYR (UniProt P62753),0.519
3,RPS14_P62263_31_KEEQVISLGPQVAEGENVFGVCHIFASFNDTFVHVTDLSGK (UniProt P62263),0.269
4,RSBN1L_Q6PCB5_610_DVICFHAEDFLEVVQR (UniProt Q6PCB5),0.0423
5,RRM2B_Q7LG56_232+236_DEGLHCDFACLMFQYLVNKPSEER (UniProt Q7LG56),-0.186
6,RUFY1_Q96T51_603_ICEEQEQALQEMGLHLSQSK (UniProt Q96T51),-0.0904
7,RPS12_P25398_50+56_RQAHLCVLASNCDEPMYVK (UniProt P25398),-0.683
8,SAMD9_Q5K651_721_LEAMIQNCADSSKPTSTK (UniProt Q5K651),-0.0631
9,RTFDC1_Q9BY42_262_AGKPPCGATK (UniProt Q9BY42),-0.33
10,RRS1_Q15050_52_CAGPTPEAELQALAR (UniProt Q15050),-0.0527
11,RPS5_P46782_66_KAQCPIVER (UniProt P46782),-0.129
12,RPS8_P62241_72_LDVGNFSWGSECCTRK (UniProt P62241),-0.469
13,RPTOR_Q8N122_1168_VQDIPTGADSCVTSLSCDSHR (UniProt Q8N122),-0.0357
14,RSBN1_Q5VWQ0_318_DEQLCR (UniProt Q5VWQ0),-0.556
15,RSPRY1_Q96DX4_208_NTSAVLGCLAEK (UniProt Q96DX4),0.21
16,RUBCNL_Q9H714_641_QCFQSSECPR (UniProt Q9H714),0.302
17,RPS28_P62857_27_TGSQGQCTQVR (UniProt P62857),-0.0298
18,RRN3_Q9NYV6_329_DVCYVDGK (UniProt Q9NYV6),-0.103
